From article PMC11637765
No constants are given. Whether binding was seen depends on the method and setting. Binding seen in cells or lysates may run through a third protein. Some binding calls cover weakened binding; strength is not graded here. For some assays here: Tags and fused reporters may be left off the sequences shown.

B1: CDKB2, cyclin-dependent kinase, as the split-LUC fusion (protein, UniProt Q0J4I1 1-326)
chain: MAALHHQAAAAPVTTTTDGGELRAMDLYEKLEKVGEGTYGKVYKAREKATGRIVALKKTRLPEDDEGVPPTALREVSLLRMLSQDSHVVRLLDLKQGQNKEGQTILYLVFEYMDTDLKKFIRAHRQNLQKIPVPTVKILMYQLCKGVAFCHGRGVLHRDLKPHNLLMDRKTMALKIADLGLSRSFTVPLKKYTHEILTLWYRAPEVLLGAAHYSTPVDIWSVGCIFAELATNQPLFAGDSEVQQLLHIFKLLGTPNEQVWPGVSKLPNWHEYPQWNPSKVSDLVHGLDADALDLLEKMLQYEPSKRISAKKAMEHPYFNDVNKELY
B2: CDKB2, cyclin-dependent kinase, as used in the pull-down assay (protein, UniProt Q0J4I1 1-326)
chain: B1 chain

Legend:
[1] = biological target: GWY10 (Grain Weight and Yield on Chromosome 10), a conserved actin protein, as the split-LUC fusion (rice (Oryza sativa L.)) (UniProt A3C6D7); assay: split reporter; split-LUC (split luciferase complementation) assay, screen of GWY10 against cyclin-related proteins; conditions not shown (supplementary methods)
[2] = biological target: GWY10 (Grain Weight and Yield on Chromosome 10), a conserved actin protein, as used in the pull-down assay (rice (Oryza sativa L.)) (UniProt A3C6D7); assay: pull-down; pull-down assay of GWY10 and CDKB2; which protein was the bait and the conditions were not shown (supplementary methods)

Binder | binding [1] | binding [2]
B1 | binds | –
B2 | – | binds
